# Only a part is listed here, and it is no random draw. The calls were merged from several studies; some rest on single wells. The list shows a part of the results.
# Amino acid sequences for entries named in this document (tags omitted). A change or cut given only in a name is not applied to a line headed by its entry.
# UniProt Q96RD3: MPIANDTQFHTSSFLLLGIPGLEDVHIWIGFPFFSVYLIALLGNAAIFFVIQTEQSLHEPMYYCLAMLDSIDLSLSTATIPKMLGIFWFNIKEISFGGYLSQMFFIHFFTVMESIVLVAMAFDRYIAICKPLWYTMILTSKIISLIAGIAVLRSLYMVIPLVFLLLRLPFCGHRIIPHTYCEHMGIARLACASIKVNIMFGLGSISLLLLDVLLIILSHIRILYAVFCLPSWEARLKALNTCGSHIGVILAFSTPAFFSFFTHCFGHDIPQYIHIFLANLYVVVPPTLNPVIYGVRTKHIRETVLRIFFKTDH
# UniProt Q8NH60: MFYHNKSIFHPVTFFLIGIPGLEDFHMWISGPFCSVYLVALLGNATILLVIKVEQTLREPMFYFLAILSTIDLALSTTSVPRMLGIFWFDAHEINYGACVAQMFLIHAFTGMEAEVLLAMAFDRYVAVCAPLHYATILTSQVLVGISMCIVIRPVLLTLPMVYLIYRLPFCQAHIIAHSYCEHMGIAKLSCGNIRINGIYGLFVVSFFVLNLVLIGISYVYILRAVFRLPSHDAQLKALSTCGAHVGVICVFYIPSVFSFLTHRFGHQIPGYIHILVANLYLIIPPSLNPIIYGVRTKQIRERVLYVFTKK
# UniProt Q8NGH6: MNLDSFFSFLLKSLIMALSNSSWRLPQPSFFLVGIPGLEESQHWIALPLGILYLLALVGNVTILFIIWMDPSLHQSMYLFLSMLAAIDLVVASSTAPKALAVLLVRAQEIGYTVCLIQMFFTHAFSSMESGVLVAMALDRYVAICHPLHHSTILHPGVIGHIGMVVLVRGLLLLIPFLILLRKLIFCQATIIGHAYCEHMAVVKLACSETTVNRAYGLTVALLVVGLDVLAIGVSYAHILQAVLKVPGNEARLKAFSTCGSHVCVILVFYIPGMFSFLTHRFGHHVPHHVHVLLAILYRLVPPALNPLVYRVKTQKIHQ
# UniProt Q8NH57: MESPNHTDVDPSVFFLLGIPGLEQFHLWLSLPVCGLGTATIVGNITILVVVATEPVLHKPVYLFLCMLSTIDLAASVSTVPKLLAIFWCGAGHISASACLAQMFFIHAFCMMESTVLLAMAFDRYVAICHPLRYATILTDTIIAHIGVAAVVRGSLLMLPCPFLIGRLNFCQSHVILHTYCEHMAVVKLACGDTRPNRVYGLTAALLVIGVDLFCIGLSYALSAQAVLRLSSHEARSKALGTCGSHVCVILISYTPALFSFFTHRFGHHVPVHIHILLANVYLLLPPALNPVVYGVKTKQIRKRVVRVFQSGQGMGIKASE
# Columns and labels:
# Conditions in all cases: stereoisomer not certain
# [1] = target: OR52E6 (Homo sapiens) (UniProt Q96RD3)
# Outline: (§1)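 Each entry records the cell line, G-protein, co-transfected protein and tags used. Methods varied with the source, often transient luciferase assays in mammalian cell lines. A receptor–molecule pair is called responsive (active) if the original authors judged its signal statistically different from baseline and non-responsive (inactive) otherwise.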
# [2] = target: T1, OR52K1 (Homo sapiens) (UniProt Q8NGK4)
# T1 sequence (whole entry): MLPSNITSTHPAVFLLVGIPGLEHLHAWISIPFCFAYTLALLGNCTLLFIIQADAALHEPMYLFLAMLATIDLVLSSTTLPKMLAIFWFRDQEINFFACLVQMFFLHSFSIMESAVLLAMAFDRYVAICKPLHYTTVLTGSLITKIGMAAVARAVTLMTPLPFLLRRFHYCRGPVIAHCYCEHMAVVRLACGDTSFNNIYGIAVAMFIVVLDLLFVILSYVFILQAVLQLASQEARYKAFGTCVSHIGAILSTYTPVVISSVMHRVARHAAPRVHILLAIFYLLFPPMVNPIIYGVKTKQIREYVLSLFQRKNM
# Outline: as §1
# [3] = target: T2, OR52K2 (Homo sapiens) (UniProt Q8NGK3)
# T2 sequence (whole entry): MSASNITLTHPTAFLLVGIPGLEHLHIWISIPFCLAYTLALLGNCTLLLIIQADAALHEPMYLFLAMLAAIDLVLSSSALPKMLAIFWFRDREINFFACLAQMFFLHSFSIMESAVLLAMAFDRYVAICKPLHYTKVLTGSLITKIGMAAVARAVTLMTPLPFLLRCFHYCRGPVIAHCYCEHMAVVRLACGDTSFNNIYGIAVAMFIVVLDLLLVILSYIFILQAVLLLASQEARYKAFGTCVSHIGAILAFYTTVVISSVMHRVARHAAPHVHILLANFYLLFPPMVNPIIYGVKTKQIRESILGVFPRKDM
# Outline: as §1
# [4] = target: T3, OR56A1 (Homo sapiens) (UniProt Q8NGH5)
# T3 sequence (whole entry): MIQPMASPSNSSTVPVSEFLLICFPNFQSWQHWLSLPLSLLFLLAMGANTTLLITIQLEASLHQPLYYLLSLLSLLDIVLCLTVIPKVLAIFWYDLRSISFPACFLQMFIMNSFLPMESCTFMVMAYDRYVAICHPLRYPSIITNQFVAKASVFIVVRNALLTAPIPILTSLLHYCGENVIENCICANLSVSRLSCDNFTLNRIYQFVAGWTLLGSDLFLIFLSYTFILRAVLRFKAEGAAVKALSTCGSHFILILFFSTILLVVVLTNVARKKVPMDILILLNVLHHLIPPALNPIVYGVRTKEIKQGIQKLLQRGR
# Outline: as §1
# [5] = target: T4, OR52H1 (Homo sapiens) (UniProt Q8NGJ2)
# T4 sequence (whole entry): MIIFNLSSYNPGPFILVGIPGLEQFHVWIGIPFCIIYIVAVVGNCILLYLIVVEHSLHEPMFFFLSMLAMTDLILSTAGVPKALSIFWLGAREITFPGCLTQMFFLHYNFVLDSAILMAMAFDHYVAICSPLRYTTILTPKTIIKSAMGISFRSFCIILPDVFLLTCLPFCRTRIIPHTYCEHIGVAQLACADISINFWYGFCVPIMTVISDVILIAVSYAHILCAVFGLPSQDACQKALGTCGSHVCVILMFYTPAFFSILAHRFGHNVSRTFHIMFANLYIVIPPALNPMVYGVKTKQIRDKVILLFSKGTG
# Outline: as §1
# [6] = target: T5, OR52N5 (Homo sapiens) (UniProt Q8NH56)
# T5 sequence (whole entry): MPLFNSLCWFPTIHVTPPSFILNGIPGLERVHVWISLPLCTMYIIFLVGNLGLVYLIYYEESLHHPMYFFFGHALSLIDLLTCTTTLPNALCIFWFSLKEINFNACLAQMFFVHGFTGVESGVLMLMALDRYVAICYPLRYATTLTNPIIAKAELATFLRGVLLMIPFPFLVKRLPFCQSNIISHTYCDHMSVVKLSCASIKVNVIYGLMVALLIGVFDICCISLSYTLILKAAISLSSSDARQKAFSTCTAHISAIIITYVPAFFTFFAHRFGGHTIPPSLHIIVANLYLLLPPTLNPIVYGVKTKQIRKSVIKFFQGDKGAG
# Outline: as §1
# [7] = target: T6, OR56A4 (Homo sapiens) (UniProt Q8NGH8)
# T6 sequence (whole entry): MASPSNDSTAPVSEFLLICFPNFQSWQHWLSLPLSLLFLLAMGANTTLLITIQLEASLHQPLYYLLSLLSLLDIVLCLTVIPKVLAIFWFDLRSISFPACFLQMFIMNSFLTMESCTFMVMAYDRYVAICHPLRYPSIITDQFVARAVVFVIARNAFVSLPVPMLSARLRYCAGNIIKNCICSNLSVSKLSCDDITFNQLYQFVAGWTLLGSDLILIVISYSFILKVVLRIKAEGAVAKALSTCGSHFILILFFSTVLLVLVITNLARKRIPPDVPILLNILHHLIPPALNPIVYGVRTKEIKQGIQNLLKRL
# Outline: as §1
# [8] = target: T7, OR52I2 (Homo sapiens) (UniProt Q8NH67)
# T7 sequence (whole entry): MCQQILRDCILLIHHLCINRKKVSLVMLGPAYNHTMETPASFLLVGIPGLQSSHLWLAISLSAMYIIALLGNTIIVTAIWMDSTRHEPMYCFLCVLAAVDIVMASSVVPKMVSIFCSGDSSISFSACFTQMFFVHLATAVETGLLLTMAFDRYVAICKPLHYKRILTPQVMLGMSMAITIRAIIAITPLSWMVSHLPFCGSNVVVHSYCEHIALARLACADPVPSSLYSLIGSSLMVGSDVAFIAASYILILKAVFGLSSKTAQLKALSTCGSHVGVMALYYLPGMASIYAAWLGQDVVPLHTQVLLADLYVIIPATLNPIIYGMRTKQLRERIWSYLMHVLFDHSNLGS
# Outline: as §1
# [9] = target: OR52J3 (Homo sapiens) (UniProt Q8NH60)
# Outline: as §1
# [10] = target: T8, OR52L1 (Homo sapiens) (UniProt Q8NGH7)
# T8 sequence (whole entry): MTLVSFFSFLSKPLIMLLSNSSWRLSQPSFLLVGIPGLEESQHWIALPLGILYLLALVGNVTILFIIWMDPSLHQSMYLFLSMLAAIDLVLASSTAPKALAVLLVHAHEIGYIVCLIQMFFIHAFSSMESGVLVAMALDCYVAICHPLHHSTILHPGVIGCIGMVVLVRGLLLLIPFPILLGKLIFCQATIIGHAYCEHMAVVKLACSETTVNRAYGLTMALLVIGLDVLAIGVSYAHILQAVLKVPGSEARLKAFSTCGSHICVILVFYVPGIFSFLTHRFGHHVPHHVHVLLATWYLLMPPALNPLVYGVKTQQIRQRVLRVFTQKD
# Outline: as §1
# [11] = target: OR52L2P (Homo sapiens) (UniProt Q8NGH6)
# Outline: as §1
# [12] = target: T9, OR52M1 (Homo sapiens) (UniProt Q8NGK5)
# T9 sequence (whole entry): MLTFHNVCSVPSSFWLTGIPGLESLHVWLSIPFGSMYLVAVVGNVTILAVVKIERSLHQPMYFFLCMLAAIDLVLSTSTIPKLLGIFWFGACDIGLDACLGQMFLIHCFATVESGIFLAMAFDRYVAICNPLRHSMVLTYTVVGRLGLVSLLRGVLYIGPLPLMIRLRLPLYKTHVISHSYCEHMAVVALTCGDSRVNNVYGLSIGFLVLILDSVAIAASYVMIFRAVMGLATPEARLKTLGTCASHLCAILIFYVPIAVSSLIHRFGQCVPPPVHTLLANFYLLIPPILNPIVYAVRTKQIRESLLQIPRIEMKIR
# Outline: as §1
# [13] = target: T10, OR52N1 (Homo sapiens) (UniProt Q8NH53)
# T10 sequence (whole entry): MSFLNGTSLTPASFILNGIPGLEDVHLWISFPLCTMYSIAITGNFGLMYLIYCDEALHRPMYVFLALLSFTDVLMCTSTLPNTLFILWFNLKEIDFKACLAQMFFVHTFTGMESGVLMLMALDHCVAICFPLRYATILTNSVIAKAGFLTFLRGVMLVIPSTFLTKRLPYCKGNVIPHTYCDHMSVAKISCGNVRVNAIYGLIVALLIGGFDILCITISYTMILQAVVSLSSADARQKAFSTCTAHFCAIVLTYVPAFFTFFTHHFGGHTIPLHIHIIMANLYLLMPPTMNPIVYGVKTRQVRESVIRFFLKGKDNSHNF
# Outline: as §1
# [14] = target: T11, OR52N4 (Homo sapiens) (UniProt Q8NGI2)
# T11 sequence (whole entry): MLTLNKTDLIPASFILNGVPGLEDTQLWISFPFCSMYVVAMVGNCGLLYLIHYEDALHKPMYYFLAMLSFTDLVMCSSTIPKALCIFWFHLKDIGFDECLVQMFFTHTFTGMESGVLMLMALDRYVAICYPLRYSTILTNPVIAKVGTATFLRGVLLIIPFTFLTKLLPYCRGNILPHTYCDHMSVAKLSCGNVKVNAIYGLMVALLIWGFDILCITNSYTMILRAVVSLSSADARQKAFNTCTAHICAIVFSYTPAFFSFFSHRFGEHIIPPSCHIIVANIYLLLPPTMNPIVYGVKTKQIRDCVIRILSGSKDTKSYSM
# Outline: as §1
# [15] = target: OR52P1 (Homo sapiens) (UniProt Q8NH57)
# Outline: as §1
# [16] = target: T12, OR52W1 (Homo sapiens) (UniProt Q6IF63)
# T12 sequence (whole entry): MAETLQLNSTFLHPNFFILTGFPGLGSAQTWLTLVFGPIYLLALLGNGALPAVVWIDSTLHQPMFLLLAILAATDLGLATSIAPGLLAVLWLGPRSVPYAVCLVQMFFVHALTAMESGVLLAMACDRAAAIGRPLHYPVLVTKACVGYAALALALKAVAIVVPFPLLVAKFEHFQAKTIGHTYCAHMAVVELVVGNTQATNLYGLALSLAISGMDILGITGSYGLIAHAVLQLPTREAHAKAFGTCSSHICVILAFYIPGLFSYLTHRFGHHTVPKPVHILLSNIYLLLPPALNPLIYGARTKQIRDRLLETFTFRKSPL
# Outline: as §1
# [17] = target: T13, OR56A3 (Homo sapiens) (UniProt Q8NH54)
# T13 sequence (whole entry): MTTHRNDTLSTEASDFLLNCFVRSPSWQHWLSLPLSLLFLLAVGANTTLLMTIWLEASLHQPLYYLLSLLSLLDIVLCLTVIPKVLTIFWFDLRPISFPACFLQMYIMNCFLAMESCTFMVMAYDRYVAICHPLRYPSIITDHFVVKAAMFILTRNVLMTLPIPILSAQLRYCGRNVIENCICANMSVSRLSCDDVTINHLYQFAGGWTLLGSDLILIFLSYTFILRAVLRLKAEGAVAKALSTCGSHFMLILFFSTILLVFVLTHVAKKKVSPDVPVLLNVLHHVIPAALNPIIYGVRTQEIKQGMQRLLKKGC
# Outline: as §1
smiles,measurement,setting,value
CC1=NC(C)SC1C (stereo not given),odorant receptor agonist call,[1],inactive
same,odorant receptor agonist call,[2],inactive
same,odorant receptor agonist call,[3],inactive
same,odorant receptor agonist call,[4],inactive
COC(=O)c1ccccc1,odorant receptor agonist call,[1],inactive
same,odorant receptor agonist call,[2],inactive
same,odorant receptor agonist call,[3],inactive
same,odorant receptor agonist call,[4],inactive
C=C(C)C1CCC2=CC(=O)CC(C)C2(C)C1 (stereo not given),odorant receptor agonist call,[5],active
same,odorant receptor agonist call,[6],active
same,odorant receptor agonist call,[7],inactive
CCCCCCCC=CC=O,odorant receptor agonist call,[1],inactive
same,odorant receptor agonist call,[5],inactive
same,odorant receptor agonist call,[2],inactive
same,odorant receptor agonist call,[3],inactive
same,odorant receptor agonist call,[6],inactive
same,odorant receptor agonist call,[4],inactive
same,odorant receptor agonist call,[7],active
C=CCc1ccc(OC)c(OC)c1,odorant receptor agonist call,[1],inactive
same,odorant receptor agonist call,[5],inactive
same,odorant receptor agonist call,[2],inactive
same,odorant receptor agonist call,[3],inactive
same,odorant receptor agonist call,[6],inactive
same,odorant receptor agonist call,[4],inactive
same,odorant receptor agonist call,[7],inactive
CC(=O)c1ccccc1,odorant receptor agonist call,[1],inactive
same,odorant receptor agonist call,[2],inactive
same,odorant receptor agonist call,[3],inactive
same,odorant receptor agonist call,[4],inactive
CCCCCCCCOC(C)=O,odorant receptor agonist call,[1],inactive
same,odorant receptor agonist call,[5],inactive
same,odorant receptor agonist call,[2],inactive
same,odorant receptor agonist call,[3],inactive
same,odorant receptor agonist call,[6],inactive
same,odorant receptor agonist call,[4],inactive
same,odorant receptor agonist call,[7],inactive
CC12C=CCC1C1CCC3CC(=O)CCC3(C)C1CC2 (stereo not given),odorant receptor agonist call,[5],inactive
same,odorant receptor agonist call,[8],inactive
same,odorant receptor agonist call,[9],inactive
same,odorant receptor agonist call,[10],inactive
same,odorant receptor agonist call,[11],inactive
same,odorant receptor agonist call,[12],inactive
same,odorant receptor agonist call,[13],inactive
same,odorant receptor agonist call,[14],inactive
same,odorant receptor agonist call,[6],inactive
same,odorant receptor agonist call,[15],inactive
same,odorant receptor agonist call,[16],inactive
same,odorant receptor agonist call,[4],inactive
same,odorant receptor agonist call,[17],inactive
same,odorant receptor agonist call,[7],inactive

# Random excerpt: four entries already listed.
smiles,measurement,setting,value
CC12C=CCC1C1CCC3CC(=O)CCC3(C)C1CC2 (stereo not given),odorant receptor agonist call,[14],inactive
CCCCCCCCOC(C)=O,odorant receptor agonist call,[5],inactive
CC12C=CCC1C1CCC3CC(=O)CCC3(C)C1CC2 (stereo not given),odorant receptor agonist call,[16],inactive
C=C(C)C1CCC2=CC(=O)CC(C)C2(C)C1 (stereo not given),odorant receptor agonist call,[5],active
